Reference: patent publication US7247714B2, “Protection against oxidative stress and inflammation by a cytoprotective response element” (Atherogenics, Inc., priority 2001, dated 2007)
For at least one compound, name, drawing or mass did not settle the structure.

Tests used:
[1] = system: murine model of allergen-induced peritonitis; assay: Murine model of allergen-induced peritonitis (Type 1 hypersensitivity), eosinophil recruitment; assay type: in vivo, mouse; settings: Dexamethasone-Ova 2.5 gm/kg/d (positive control)
Experimental: To evaluate the anti-inflammatory potential of compound A, a murine model of Type 1 hypersensitivity was used. In this model mice are sensitized to ovalbumin and subsequently challenged with ovalbumin by intraperitoneal injection. This leads to eosinophil recruitment and accumulation in the peritoneal cavity 24-48 hours after the challenge.
6-8 week old Balb/c mice (weighing 20-30 g) were given subcutaneous injections of ovalbumin in alum (0.4 ml of 100 μg ovalbumin and 3.3 mg of Alum Inject) on days 0 and 7. The mice were challenged on day 14 with an intraperitoneal injection of ovalbumin (10 μg in 0.2 ml saline). The mice were sacrificed and peritoneal lavage fluid collected 48 hours after the challenge. The peritoneal fluid was concentrated and slide smears made using a cytospin centrifuge. Slides were stained with Diff-Quik and differential counts obtained by counting 300 cells. Compound A was administered by intravenous injection, in a vehicle composed of 95% Liposyn and 5% Tween 20, 4 or 1 hour prior to challenge. Compound A was compared to dexamethosone administered orally at a dose of 2.5 mg/kg/d.
In a common allergic inflammation, balb/C mice were divided into two groups: control/vehicle and Compound G treated. They were then sensitized to ovalbumin on days 0 and 7 with a subcutaneous injection of ovalbumin absorbed in aluminum hydroxide. […]

[2] = system: murine model of aerosolized ovalbumin-induced asthma; assay: Mouse asthma model, airway eosinophilia and hyperreactivity; assay type: in vivo; settings: Dexamethasone 3 gm/kg/d
Experimental: Male BALB-C mice, 6 weeks of age, were randomly assigned to one of following groups: ova/ova, vehicle control, dexamethasone (3 mg/kg) treatment, and Compound A. Animals were weighed on day 0, 7, 12 and 14 and were given access to food and water ad libidum. Mice were sensitized intraperitoneally with 8 μg of ovalbumin and 1 mg of aluminum hydroxide on Day 0 and Day 5. The animals were exposed to aerosolized ovalbumin (0.5%) twice on Day 12 (1 hr & 10 minutes per exposure). The ovalbumin exposures were separated by at least 4 hours. Differentials were performed on bronchoaveolar lavage fluid on Day 14 to determine % eosinophils. Compound A was orally administered daily at a dose of 300 mg/kg from time of sensitization to termination of study to the Compound A group.

C[C@@H]1C[C@H]2[C@@H]3CCC4=CC(=O)C=C[C@]4(C)[C@@]3(F)[C@@H](O)C[C@]2(C)[C@@]1(O)C(=O)CO [Dexamethasone, reference compound] was tested, and the “Eosinophil levels in peritoneal fluid (percent eosinophils)” value [1] was “significantly decreased”, the “Eosinophil levels in bronchoaveolar lavage fluid” value [2] was “significantly decreased” and the “Lung function (airway hyperreactivity to methacholine)” value [2] was “significantly improved lung function”.
